± gives the standard deviation of the averaged measurements. This is a selection; strong and weak results do not stand in their true shares.
Compound: Nc1ncnc2c1ncn2[C@@H]1O[C@H](COP(=O)(O)OP(=O)(O)NP(=O)(O)O)[C@@H](O)[C@H]1O [adenylyl imidodiphosphate]
Assay: NP40-soluble protein abundance relative to vehicle (solubility fold change) (ratio); higher = more soluble protein in presence of AMP-PNP
Method in brief: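 In three independent experiments, Jurkat crude lysate made by Dounce homogenisation was treated for 10 min at room temperature and then 3 min at 37 °C with eight concentrations ranging from 0.1 to 10 mM. It was then solubilised with 0.8% NP40 plus benzonase for 60 min at 4 °C and ultracentrifuged. The supernatant was TMT-labelled for LC-MS/MS, and each value is the fold change against the detergent-processed vehicle for the same replicate, using vsn-normalised intensities.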

Protein sequences, listed by entry. Tags and fused reporters are not part of them. Lines headed by an entry give the natural chain unless they say otherwise; changes in a name come on top.
UniProt Q9H0V9: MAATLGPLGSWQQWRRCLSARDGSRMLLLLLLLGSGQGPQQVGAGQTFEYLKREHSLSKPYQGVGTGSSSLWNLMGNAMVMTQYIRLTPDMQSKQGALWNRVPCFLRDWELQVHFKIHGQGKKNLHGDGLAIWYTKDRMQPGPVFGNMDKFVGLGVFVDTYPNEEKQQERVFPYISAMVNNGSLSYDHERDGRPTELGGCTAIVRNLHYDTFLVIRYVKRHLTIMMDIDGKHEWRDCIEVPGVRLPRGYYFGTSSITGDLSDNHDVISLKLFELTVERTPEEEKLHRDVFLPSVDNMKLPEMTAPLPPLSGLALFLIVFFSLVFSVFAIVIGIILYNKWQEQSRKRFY
UniProt Q9H4G4: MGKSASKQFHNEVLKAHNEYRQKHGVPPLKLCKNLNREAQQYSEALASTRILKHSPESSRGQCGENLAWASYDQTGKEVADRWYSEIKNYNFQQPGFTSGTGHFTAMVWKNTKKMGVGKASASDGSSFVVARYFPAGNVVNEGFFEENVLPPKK
UniProt Q9H974: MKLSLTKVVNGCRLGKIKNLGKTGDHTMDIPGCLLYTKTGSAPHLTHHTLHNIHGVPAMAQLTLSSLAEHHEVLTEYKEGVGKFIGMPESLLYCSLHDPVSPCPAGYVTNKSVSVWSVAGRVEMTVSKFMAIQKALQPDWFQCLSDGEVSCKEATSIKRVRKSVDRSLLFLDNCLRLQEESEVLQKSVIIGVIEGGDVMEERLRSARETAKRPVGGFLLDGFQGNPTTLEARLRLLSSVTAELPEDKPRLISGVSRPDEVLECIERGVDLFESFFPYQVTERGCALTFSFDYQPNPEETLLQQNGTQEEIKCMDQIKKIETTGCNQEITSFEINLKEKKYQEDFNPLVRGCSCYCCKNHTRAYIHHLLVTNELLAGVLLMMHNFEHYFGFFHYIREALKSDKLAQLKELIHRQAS
UniProt Q9H8H0: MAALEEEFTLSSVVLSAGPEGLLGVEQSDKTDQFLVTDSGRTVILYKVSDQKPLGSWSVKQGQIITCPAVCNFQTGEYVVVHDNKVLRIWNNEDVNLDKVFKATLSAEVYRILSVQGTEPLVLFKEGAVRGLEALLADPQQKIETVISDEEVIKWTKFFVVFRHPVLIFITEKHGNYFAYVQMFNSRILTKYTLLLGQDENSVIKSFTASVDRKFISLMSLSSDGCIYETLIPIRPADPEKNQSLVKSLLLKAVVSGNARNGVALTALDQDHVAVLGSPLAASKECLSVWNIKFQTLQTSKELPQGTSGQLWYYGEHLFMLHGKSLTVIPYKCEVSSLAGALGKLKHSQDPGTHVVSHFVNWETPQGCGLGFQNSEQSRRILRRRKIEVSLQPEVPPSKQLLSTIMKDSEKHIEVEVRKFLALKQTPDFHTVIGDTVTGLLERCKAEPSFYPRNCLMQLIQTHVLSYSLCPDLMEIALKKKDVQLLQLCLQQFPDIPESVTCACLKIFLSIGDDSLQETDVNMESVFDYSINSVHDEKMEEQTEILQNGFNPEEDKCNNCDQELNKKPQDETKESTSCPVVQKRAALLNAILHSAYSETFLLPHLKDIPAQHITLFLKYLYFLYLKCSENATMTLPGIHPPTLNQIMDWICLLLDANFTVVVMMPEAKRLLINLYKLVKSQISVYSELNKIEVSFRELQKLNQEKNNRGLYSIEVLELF
UniProt Q9H019: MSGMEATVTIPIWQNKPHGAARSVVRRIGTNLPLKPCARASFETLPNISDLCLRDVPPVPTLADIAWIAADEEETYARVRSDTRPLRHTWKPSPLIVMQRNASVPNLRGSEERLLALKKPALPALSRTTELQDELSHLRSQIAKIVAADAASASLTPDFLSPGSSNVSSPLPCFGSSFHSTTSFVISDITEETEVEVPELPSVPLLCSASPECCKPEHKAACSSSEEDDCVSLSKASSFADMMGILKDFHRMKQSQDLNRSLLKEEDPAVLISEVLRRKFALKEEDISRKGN
UniProt Q9BZM5, whole entry: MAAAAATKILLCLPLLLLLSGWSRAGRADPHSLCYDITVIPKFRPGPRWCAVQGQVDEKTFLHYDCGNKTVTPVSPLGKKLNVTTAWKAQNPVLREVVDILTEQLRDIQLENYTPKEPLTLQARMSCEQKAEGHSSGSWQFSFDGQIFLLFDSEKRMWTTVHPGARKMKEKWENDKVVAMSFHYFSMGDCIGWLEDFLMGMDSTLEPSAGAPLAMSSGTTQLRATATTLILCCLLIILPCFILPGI
UniProt Q9C0B5: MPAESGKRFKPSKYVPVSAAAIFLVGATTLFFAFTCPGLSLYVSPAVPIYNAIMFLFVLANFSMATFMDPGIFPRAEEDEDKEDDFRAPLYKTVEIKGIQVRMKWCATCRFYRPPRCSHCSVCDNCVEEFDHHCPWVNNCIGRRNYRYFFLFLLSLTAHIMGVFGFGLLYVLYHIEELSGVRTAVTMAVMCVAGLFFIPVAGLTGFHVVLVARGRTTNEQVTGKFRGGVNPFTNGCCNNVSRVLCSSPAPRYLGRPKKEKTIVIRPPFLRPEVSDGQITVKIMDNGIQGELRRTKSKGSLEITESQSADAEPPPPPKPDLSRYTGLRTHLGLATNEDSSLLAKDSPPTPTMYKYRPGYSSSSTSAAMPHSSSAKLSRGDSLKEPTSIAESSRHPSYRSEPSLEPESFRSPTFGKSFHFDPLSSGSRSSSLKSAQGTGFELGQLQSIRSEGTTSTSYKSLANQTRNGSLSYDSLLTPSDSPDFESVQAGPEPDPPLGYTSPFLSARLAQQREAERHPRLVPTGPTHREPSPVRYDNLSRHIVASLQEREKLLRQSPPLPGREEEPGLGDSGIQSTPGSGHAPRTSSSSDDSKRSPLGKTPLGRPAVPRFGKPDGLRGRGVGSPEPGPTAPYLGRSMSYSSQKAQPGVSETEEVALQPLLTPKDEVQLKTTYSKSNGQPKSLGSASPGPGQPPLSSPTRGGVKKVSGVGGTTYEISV
UniProt Q9H0F7: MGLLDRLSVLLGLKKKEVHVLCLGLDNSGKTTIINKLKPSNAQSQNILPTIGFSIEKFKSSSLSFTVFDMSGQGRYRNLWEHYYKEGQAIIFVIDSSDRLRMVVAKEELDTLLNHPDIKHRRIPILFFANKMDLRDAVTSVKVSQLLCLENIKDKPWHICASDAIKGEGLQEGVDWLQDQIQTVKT
UniProt Q9H4Z3: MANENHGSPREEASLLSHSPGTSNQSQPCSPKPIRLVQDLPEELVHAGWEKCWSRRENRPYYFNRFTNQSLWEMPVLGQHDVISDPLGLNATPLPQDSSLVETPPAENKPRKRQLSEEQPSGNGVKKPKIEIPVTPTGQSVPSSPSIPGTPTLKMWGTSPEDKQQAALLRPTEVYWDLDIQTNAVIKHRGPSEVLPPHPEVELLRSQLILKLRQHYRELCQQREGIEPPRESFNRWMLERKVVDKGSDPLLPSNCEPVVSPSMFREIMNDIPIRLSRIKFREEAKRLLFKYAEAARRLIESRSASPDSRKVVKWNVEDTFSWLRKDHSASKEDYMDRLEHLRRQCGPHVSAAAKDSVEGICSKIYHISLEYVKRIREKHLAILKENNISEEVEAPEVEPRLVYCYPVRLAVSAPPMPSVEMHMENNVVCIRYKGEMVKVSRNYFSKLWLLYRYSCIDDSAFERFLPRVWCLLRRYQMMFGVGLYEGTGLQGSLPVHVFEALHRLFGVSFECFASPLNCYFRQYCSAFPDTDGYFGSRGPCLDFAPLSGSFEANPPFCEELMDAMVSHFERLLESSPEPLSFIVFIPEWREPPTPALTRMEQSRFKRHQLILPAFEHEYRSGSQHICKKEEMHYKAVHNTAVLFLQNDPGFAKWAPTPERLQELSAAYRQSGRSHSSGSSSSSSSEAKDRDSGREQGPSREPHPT
UniProt Q9HAT2: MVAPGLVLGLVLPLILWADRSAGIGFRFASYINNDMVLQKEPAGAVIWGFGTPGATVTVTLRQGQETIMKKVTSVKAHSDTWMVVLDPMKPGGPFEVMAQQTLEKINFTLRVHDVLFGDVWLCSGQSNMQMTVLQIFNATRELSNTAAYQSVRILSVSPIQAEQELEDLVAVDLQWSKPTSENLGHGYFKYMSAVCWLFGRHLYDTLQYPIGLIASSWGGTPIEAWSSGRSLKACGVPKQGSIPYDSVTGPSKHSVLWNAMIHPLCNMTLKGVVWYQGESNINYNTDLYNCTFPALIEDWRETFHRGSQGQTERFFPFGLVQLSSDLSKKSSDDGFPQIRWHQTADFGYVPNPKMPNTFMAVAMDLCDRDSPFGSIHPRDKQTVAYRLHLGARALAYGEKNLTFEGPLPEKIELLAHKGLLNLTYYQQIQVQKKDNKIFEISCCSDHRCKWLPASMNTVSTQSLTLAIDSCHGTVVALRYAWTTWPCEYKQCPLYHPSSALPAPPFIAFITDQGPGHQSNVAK
UniProt Q9H3Z4: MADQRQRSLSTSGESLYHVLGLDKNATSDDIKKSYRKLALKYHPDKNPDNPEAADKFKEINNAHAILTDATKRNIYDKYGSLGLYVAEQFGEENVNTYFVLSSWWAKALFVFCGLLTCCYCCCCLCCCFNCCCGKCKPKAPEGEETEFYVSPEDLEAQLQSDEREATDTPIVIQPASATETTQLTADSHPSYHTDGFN
UniProt Q9C0E8: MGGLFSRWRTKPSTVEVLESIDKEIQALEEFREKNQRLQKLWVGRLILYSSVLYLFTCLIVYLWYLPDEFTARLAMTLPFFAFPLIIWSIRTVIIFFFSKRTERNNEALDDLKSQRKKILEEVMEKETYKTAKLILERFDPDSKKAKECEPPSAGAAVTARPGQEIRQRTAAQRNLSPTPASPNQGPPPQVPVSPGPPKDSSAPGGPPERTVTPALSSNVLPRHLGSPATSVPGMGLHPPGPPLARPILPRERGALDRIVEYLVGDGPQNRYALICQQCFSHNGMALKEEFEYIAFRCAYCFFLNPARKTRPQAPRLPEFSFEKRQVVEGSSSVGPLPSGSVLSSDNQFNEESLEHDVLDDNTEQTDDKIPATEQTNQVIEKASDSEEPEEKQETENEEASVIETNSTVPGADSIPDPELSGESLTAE
UniProt Q9H6E4: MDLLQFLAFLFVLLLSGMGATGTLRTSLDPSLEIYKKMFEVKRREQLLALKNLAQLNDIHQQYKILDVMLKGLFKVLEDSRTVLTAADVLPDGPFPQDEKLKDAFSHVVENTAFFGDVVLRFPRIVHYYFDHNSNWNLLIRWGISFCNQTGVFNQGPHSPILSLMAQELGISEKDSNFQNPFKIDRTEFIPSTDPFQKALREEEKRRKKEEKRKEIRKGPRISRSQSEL
UniProt Q9H7N4: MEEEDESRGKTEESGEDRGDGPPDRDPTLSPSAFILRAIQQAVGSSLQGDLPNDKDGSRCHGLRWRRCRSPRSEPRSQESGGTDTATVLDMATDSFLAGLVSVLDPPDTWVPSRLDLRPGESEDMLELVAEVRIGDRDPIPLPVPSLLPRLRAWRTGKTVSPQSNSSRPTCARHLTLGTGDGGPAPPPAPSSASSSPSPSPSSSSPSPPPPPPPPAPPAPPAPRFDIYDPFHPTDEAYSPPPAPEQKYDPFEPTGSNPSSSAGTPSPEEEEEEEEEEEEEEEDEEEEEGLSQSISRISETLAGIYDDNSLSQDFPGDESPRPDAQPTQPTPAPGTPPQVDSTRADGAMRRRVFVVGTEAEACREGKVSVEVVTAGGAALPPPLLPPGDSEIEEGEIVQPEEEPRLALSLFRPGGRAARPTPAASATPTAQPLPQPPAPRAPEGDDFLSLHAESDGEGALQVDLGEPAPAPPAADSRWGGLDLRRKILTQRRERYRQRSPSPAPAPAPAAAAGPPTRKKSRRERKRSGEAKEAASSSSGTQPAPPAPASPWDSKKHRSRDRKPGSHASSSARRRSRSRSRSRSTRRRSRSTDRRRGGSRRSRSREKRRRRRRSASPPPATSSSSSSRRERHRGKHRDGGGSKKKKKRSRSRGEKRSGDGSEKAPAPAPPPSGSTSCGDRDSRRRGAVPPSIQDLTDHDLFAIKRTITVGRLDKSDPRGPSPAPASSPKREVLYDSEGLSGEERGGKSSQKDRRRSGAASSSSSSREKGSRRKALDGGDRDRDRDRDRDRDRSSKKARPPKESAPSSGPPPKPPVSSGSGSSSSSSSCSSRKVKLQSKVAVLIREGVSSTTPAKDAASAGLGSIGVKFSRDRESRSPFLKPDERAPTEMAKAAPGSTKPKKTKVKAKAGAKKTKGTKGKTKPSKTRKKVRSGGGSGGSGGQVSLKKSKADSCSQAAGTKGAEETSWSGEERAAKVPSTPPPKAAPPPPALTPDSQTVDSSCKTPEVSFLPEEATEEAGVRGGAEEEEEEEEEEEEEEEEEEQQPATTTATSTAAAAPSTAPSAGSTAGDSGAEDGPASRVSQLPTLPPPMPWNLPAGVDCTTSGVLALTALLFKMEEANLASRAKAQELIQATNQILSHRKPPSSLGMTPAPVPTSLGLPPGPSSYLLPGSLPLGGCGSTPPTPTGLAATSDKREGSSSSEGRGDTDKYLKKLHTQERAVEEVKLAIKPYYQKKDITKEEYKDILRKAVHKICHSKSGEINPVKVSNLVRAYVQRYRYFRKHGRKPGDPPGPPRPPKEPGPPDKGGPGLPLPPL

Target	NP40-soluble protein abundance (concentration: 1mM)	NP40-soluble protein abundance (concentration: 2mM)	NP40-soluble protein abundance (concentration: 4mM)	NP40-soluble protein abundance (concentration: 6mM)	NP40-soluble protein abundance (concentration: 8mM)	NP40-soluble protein abundance (concentration: 10mM)
UniProt Q9H9Y6 and related entries	1.03 ± 0.034	0.99 ± 0.11	1.06 ± 0.058	1.06 ± 0.11	1.08 ± 0.12	1.03 ± 0.13
UniProt Q9H0V9 and related entries	1.02 ± 0.042	0.965 ± 0.052	0.973 ± 0.055	0.984 ± 0.059	1.02 ± 0.041	0.978 ± 0.031
UniProt Q9H832 and related entries	1.02 ± 0.039	1.05 ± 0.094	1.01 ± 0.051	0.974 ± 0.046	0.979 ± 0.022	0.98 ± 0.053
GLIPR2 (UniProt Q9H4G4)	1.01 ± 0.031	1.04 ± 0.081	1.02 ± 0.036	1.09 ± 0.04	1.11 ± 0.091	1.12 ± 0.025
UniProt Q9H974 and related entries	1.01 ± 0.05	0.985 ± 0.079	1.01 ± 0.058	0.973 ± 0.04	1.01 ± 0.067	0.981 ± 0.059
UniProt Q9H6D7	1.007 ± 0.01	1.03 ± 0.016	1 ± 0.029	0.969 ± 0.028	0.9567 ± 0.0092	0.925 ± 0.043
NOL11 (UniProt Q9H8H0)	1.03 ± 0.038	0.943 ± 0.049	1.01 ± 0.035	0.992 ± 0.022	1.04 ± 0.016	1.02 ± 0.029
UniProt Q9H019 and related entries	1.02 ± 0.036	1.04 ± 0.053	1 ± 0.075	1.02 ± 0.024	1.01 ± 0.018	1.01 ± 0.058
OSGEPL1 (UniProt Q9H4B0)	1.07 ± 0.02	1.04 ± 0.05	1.04 ± 0.046	1.05 ± 0.04	1.01 ± 0.021	1 ± 0.07
PUS7L (UniProt Q9H0K6)	1.03 ± 0.05	1.01 ± 0.039	1.01 ± 0.049	0.996 ± 0.05	0.997 ± 0.033	0.993 ± 0.047
UniProt Q9HD26 and related entries	0.977 ± 0.02	0.9749 ± 0.0067	0.9551 ± 0.0094	0.942 ± 0.017	0.942 ± 0.033	0.9086 ± 0.0073
MRPL44 (UniProt Q9H9J2)	1.01 ± 0.068	0.983 ± 0.064	0.995 ± 0.11	0.959 ± 0.13	0.971 ± 0.11	0.975 ± 0.17
UniProt Q9H0W8 and related entries	1.05 ± 0.044	1.06 ± 0.044	1.02 ± 0.027	0.998 ± 0.031	1.02 ± 0.033	0.993 ± 0.052
ZHX3 (UniProt Q9H4I2)	1.04 ± 0.032	1.064 ± 0.0044	1.09 ± 0.014	1.04 ± 0.055	1.02 ± 0.029	1.04 ± 0.035
UniProt Q9GZN8 and related entries	1.01 ± 0.011	0.948 ± 0.03	0.977 ± 0.01	0.991 ± 0.029	0.993 ± 0.015	0.993 ± 0.015
ULBP2 (UniProt Q9BZM5)	1.08 ± 0.016	1.08 ± 0.059	1.07 ± 0.016	1.06 ± 0.064	1.05 ± 0.013	1.036 ± 0.008
UniProt Q9C0B5 and related entries	1.03 ± 0.019	1.04 ± 0.019	1.03 ± 0.034	1.01 ± 0.038	0.982 ± 0.025	1.01 ± 0.011

A second format for part of the listing above.
Target,NP40-soluble protein abundance (concentration: 1mM),NP40-soluble protein abundance (concentration: 2mM),NP40-soluble protein abundance (concentration: 4mM),NP40-soluble protein abundance (concentration: 6mM),NP40-soluble protein abundance (concentration: 8mM),NP40-soluble protein abundance (concentration: 10mM)
OSGEPL1 (UniProt Q9H4B0),1.07 ± 0.02,1.04 ± 0.05,1.04 ± 0.046,1.05 ± 0.04,1.01 ± 0.021,1 ± 0.07
PUS7L (UniProt Q9H0K6),1.03 ± 0.05,1.01 ± 0.039,1.01 ± 0.049,0.996 ± 0.05,0.997 ± 0.033,0.993 ± 0.047
UniProt Q9HD26 and related entries,0.977 ± 0.02,0.9749 ± 0.0067,0.9551 ± 0.0094,0.942 ± 0.017,0.942 ± 0.033,0.9086 ± 0.0073

Next records

Target	NP40-soluble protein abundance (concentration: 1mM)	NP40-soluble protein abundance (concentration: 2mM)	NP40-soluble protein abundance (concentration: 4mM)	NP40-soluble protein abundance (concentration: 6mM)	NP40-soluble protein abundance (concentration: 8mM)	NP40-soluble protein abundance (concentration: 10mM)
UniProt Q9H7E2-3	1.06 ± 0.037	1.07 ± 0.029	1.066 ± 0.0091	1.052 ± 0.002	1.04 ± 0.035	1.07 ± 0.019
UniProt Q9H0F7 and related entries	1 ± 0.059	0.966 ± 0.019	1.03 ± 0.055	1.07 ± 0.069	1.1 ± 0.088	1.05 ± 0.053
UniProt Q9H2D6-5|Q9H2D6 and related entries	0.981 ± 0.025	1.04 ± 0.046	0.994 ± 0.012	0.9799 ± 0.0089	0.965 ± 0.025	0.9722 ± 0.0043
PCIF1 (UniProt Q9H4Z3)	0.963 ± 0.029	0.9926 ± 0.0087	1.04 ± 0.065	1.1 ± 0.095	1.09 ± 0.046	1.11 ± 0.054
UniProt Q9HD20 and related entries	1.05 ± 0.043	1.04 ± 0.058	1.06 ± 0.055	1.01 ± 0.022	1.02 ± 0.013	1.05 ± 0.069
UniProt Q9NNW7 and related entries	1.01 ± 0.021	1.03 ± 0.024	1.03 ± 0.016	1.028 ± 0.0094	1.01 ± 0.012	1.04 ± 0.044
NCOA5 (UniProt Q9HCD5)	1.09 ± 0.062	1.18 ± 0.039	1.37 ± 0.081	1.73 ± 0.1	1.89 ± 0.14	2.17 ± 0.35
UniProt Q9HAT2 and related entries	0.978 ± 0.072	0.958 ± 0.049	0.954 ± 0.064	1.05 ± 0.044	1.03 ± 0.017	1.06 ± 0.01
UniProt Q9H3Z4 and related entries	1.02 ± 0.044	1.03 ± 0.018	1.02 ± 0.05	1.04 ± 0.021	1.019 ± 0.0084	1.05 ± 0.017
UniProt Q9GZR1 and related entries	1 ± 0.037	1.02 ± 0.029	0.971 ± 0.021	0.99 ± 0.033	0.983 ± 0.025	0.984 ± 0.015
UniProt Q9HAJ7 and related entries	0.95342 ± 8.1e-05	0.931 ± 0.053	1.05 ± 0.05	1.05 ± 0.021	0.99 ± 0.046	0.973 ± 0.053
UniProt Q9C0E8 and related entries	1.01 ± 0.062	1.06 ± 0.09	1.02 ± 0.055	1.01 ± 0.056	1.02 ± 0.052	1.06 ± 0.039
UniProt Q9HBL7	1.02 ± 0.049	0.98 ± 0.06	0.989 ± 0.035	0.997 ± 0.015	1 ± 0.03	0.979 ± 0.02
UniProt Q9H1I8 and related entries	1.02 ± 0.05	1.06 ± 0.0094	1.04 ± 0.02	1.06 ± 0.067	1.07 ± 0.052	1.06 ± 0.076
CCDC134 (UniProt Q9H6E4)	1.02 ± 0.049	1.02 ± 0.078	0.994 ± 0.045	1.04 ± 0.068	1.07 ± 0.034	1.04 ± 0.072
UniProt Q9GZY8-2	1.04 ± 0.017	1.05 ± 0.057	1.03 ± 0.036	0.992 ± 0.024	0.983 ± 0.02	0.973 ± 0.015
SCAF1 (UniProt Q9H7N4)	1.06 ± 0.046	1.14 ± 0.055	1.13 ± 0.027	1.18 ± 0.066	1.2 ± 0.049	1.24 ± 0.039

Source: the supplement of paper PMC6411743
